No constants are given. Whether binding was seen depends on the method and setting. Binding seen in cells or lysates may run through a third protein. A result given as binding can be weak or reduced; the word gives no strength.
Target: DDX6^Mut6 of the co-IP of Supplementary Fig. S6B (UniProt P54823)
Assay: co-IP; co-IP of wild-type, truncated and mutant DDX6 proteins (Supplementary Fig. S6A, B); cells not given; western blot

Protein sequences, listed by entry. Tags and fused reporters are not part of them. Lines headed by an entry give the natural chain unless they say otherwise; changes in a name come on top.
UniProt P54823: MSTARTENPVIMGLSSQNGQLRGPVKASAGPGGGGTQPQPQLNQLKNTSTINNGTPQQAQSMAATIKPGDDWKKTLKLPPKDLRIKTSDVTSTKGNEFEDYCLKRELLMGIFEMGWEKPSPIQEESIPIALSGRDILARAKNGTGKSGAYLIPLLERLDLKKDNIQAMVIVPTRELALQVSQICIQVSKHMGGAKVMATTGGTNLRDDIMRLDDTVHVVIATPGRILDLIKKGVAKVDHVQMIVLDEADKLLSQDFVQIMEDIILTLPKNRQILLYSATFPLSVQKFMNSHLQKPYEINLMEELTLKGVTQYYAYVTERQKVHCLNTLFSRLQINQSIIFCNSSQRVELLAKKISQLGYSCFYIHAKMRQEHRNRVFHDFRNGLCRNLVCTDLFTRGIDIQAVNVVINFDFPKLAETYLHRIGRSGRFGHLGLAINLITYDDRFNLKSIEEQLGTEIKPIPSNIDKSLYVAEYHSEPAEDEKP

B1: EDC3 (protein, UniProt Q8K2D3 1-508)
chain: MAMDWLGSIVSINCGDSLGVYQGRVSAVDQVSQTISLTRPFHNGVKCLVPEVTFRAGDITELKILEIPGPGDNQQVGDLHQTELGPSGVGYQMSISQNGTGKVVKKPASSSSAPQSIPKRTDVKSQDVAISPQQQQCSKSYVDRHMESLSQSKSFRRRHNSWSSSSRHPNQATPKKSGLKNGQMKNKDDECFGDDIEELPDTDFDFEGNLALFDKAAVFEEIDTYERRSGSRSRGVPNERPARYRHDENILESEPIVYRRITVPHSVSKEFCTDSGLVVPSVSYELHKKLLSVAEKHGLTLERRLEMTGVCASQMALTLLGGPNRLNPKNVHQRPTVALLCGPHVKGAQGISCGRHLANHDVQVILFLPNFVKMLESITNELSLFSKTQGQQVSSLRDLPASPVDLVINCLDCPENAFLRDQPWYKAAVAWANQNRAPVLSIDPPVHEVEQGIDAKWSLALGLPLPLGEHAGRVYLCDIGIPQQVFQEVGINYHSPFGCKFVIPLHSA
B1 was tested, and the binding was “binds”.

Reference: article PMC12418388
